Measurements from patent US20200262889A1.
No constants are given. Whether binding was seen depends on the method and setting. Binding seen in cells or lysates may run through a third protein. Some binding calls cover weakened binding; strength is not graded here.

Amino acid sequences for entries named in this document (tags omitted). A change or cut given only in a name is not applied to a line headed by its entry.
UniProt Q80SW1: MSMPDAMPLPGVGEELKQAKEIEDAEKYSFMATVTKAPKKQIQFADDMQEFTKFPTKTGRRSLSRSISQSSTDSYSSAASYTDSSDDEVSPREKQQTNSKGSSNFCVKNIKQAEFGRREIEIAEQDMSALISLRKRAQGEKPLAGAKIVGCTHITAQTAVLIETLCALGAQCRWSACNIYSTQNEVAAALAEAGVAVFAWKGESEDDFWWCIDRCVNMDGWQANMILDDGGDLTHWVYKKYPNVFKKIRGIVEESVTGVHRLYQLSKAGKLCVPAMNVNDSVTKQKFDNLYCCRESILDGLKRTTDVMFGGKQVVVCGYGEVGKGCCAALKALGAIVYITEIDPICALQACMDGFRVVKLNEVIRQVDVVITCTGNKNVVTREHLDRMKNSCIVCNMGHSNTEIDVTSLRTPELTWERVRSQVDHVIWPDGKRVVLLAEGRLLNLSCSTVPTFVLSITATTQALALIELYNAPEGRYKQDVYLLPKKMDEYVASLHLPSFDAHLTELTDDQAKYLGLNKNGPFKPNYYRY

Experiments:
[1] = target: T1, human NaDC-1 (Solute carrier family 13 member 2, Slc13a2), wild type (human) (UniProt Q13183); experiment: coIP from HEK293T cells (legend of FIG. 5)
T1 sequence (looked up): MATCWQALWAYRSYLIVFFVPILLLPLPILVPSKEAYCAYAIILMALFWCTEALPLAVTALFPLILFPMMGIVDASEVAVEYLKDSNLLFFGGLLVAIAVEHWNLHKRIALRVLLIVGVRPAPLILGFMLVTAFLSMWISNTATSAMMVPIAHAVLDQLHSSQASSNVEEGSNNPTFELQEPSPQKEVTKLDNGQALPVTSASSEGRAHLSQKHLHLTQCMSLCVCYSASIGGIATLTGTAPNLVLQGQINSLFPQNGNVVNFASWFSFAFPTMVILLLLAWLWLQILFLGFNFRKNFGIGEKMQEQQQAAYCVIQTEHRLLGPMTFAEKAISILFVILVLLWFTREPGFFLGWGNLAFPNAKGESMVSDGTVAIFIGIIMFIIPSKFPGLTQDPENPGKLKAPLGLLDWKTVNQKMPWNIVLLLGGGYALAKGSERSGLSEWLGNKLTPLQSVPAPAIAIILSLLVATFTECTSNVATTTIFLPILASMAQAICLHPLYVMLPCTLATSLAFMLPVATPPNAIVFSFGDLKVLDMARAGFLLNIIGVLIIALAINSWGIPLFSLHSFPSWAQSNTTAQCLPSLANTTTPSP

[2] = target: T1, human NaDC-1 (Solute carrier family 13 member 2, Slc13a2), wild type (human); experiment: coIP from HEK293T cells transfected with NaDC-1, IRBIT and/or SUCNR1, 1 mM succinate 10 min before lysis

With “IRBIT (IP3 receptor-binding protein released with IP3; S-adenosylhomocysteine hydrolase-like protein) (from UniProt Q80SW1 2-530)” the binding [1] was “binds” and the binding [2] was “binds”.
